# Screening data, single-dose tests

The values are deposited in ChEMBL (CHEMBL3988442, “University of Dundee, Small-Polar-MMV Screening Library” (2021)).

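Whole-parasite assay of Trypanosoma brucei over 72 hours; the read-out is not stated. Compounds at 30 µM. The record gives no direction; compounds that gave an IC50 in retests scored well above the rest, so higher reads as stronger inhibition. Values scatter widely below zero; nearly all retest evidence comes from the higher of the two concentrations used. Size under these conditions: about 64,000 compounds, about 940 of them at 50% or above in at least one test.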

Each number is a percent effect as filed.
The controls that fix the scale are not given in the record; negative values are as filed.
Compounds were drawn at random from those tested, without regard to their results.

compound: CC(=O)N[C@@H]1CN(C(=O)c2ccncc2)C[C@H]1c1ccc(C)cc1
percent effect: -3.797

compound: Cc1nc(CNCc2c(C(C)C)nn(C)c2N2CCOCC2)cs1
percent effect: 3.878

compound: CNS(=O)(=O)CC(=O)NC(c1cc(C)sc1C)C(C)C (centres unmarked)
percent effect: -0.9249

compound: O=C(Cc1cccnc1)N1CCCC(n2cncn2)C1 (centres unmarked)
percent effect: -7.455

compound: CN(C)C(C(=O)NC1(CO)CCCC1)c1ccc(F)cc1 (centres unmarked)
percent effect: -19.67

compound: COc1ccc(-c2cc3nc([C@H](C)NC(=O)C4CC4)nn3cn2)cc1
percent effect: -18.13

compound: Cc1ccc(C)c(Oc2ccc(CNC(=O)C3CNC(=O)N3)cn2)c1 (centres unmarked)
percent effect: -3.902

compound: O=C(O)C(F)(F)F.[H][C@@]12CCN(Cc3ccsc3)C[C@@]1([H])[C@H](C(=O)NCC1CC1)CCO2
percent effect: -183.8

compound: c1cncc(COc2ccccc2CNC2CCc3ncnn3C2)c1 (centres unmarked)
percent effect: 1.916

compound: CN(Cc1cc2n(n1)CCCNC2)Cc1n[nH]c2c1CCC2
percent effect: -42.91

compound: CCC(CC)c1cc(CNC(=O)N2CCC[C@@H]2CO)on1
percent effect: -17.1

compound: CCn1cnnc1CNC(=O)N1CCC(O)CC1
percent effect: -15.86

compound: CNC(=O)Cc1cc2nccc(-c3c(OC)cccc3OC)n2n1
percent effect: 4.309

compound: Cc1n[nH]c(C)c1NC(=O)CN1CCCC(CNC(=O)C(C)(C)C)C1 (centres unmarked)
percent effect: -22.58

compound: CCc1nccn1CCCn1ccnc1-c1[nH]cnc1C
percent effect: -19.93

compound: [H][C@]12CNC[C@@]1(C(=O)NCCCOC(C)C)CN(S(C)(=O)=O)C2
percent effect: -43.32

compound: CCn1ncc2c1CCCC2NCc1cscn1 (centres unmarked)
percent effect: -26.19

compound: Cc1cccc2nc(CSCc3nnnn3C(C)C)cn12
percent effect: -26.18

compound: O=C(CN1CCC(OCC2CCCO2)CC1)NCC(F)(F)F (centres unmarked)
percent effect: 0.5984

compound: FC(F)(F)c1ccc(-c2n[nH]c3c2CN(CC2CCOC2)CC3)cc1 (centres unmarked)
percent effect: -0.8379

compound: Cc1cnn(CC2CCCCN2C(=O)Cc2cn3ccsc3n2)c1 (centres unmarked)
percent effect: -17.17

compound: CC(C)C(C(=O)N1CCCN(Cc2cnn(C)c2)CC1)n1cncn1 (centres unmarked)
percent effect: -50.75

compound: CCn1c(N)nc2cc(C(=O)NCCc3ccccc3C)cnc21
percent effect: -41.23

compound: CC(C)N1CCn2c(nc3cc(C(N)=O)ccc32)C1
percent effect: 7.022

compound: CCOCC(=O)Nc1ncn(Cc2cccc(Br)c2)n1
percent effect: -12.24

compound: Cc1nn(C)c(C)c1C1CCCN1Cc1nnc(C2CC2)n1C (centres unmarked)
percent effect: -47.72

compound: Cc1cc(-c2cnc(N(C)C)nc2C2CCCCN2C(=O)C2CC2)on1 (centres unmarked)
percent effect: 16.57

compound: CCC(C)Oc1ccc(CNCCNC(C)=O)cc1Cl (centres unmarked)
percent effect: -20.81

compound: CCOc1ccc(C(=O)NC2CCN(c3ncccn3)CC2)cc1C
percent effect: -37.06

compound: CC(Oc1ccccc1C(F)(F)F)C(=O)NCCC(=O)N(C)C (centres unmarked)
percent effect: 20.45

compound: CC1CCN(c2cncc(CCC3CCCN3)n2)CC1.Cl (centres unmarked)
percent effect: 29.11

compound: O=C(NCCn1ccnc1)C1(c2ccc3c(c2)OCCO3)CCCC1
percent effect: -11.66

compound: O=C(O)C(F)(F)F.O=C(c1c[nH]cn1)N1CCC(F)(F)C2(CCN(c3cnccn3)C2)C1 (centres unmarked)
percent effect: -66.63

compound: CCN(Cc1noc(C2CCC2)n1)C(=O)c1cn2ccsc2n1
percent effect: 15.22

compound: Cc1nonc1C1CCCN1C(=O)CCc1cc2n(n1)CCCNC2 (centres unmarked)
percent effect: -46.74

compound: CCn1ccc(C(=O)N(C)Cc2cnn(-c3cccc(OC)c3)c2)n1
percent effect: -9.997

compound: Cc1oncc1C(=O)N1CCC2(C1)CN(c1cccnc1)C(=O)CN2C (centres unmarked)
percent effect: 1.456

compound: CC(C)CC(CCO)CNC(=O)N1CC(C)(C)C1(C)C (centres unmarked)
percent effect: -14.15

compound: COC(C)C(=O)Nc1cc(C(=O)N2CCSCC2)ccc1C (centres unmarked)
percent effect: -56.32

compound: CCOCCCNc1ncc(-c2onc(C)c2C)c(-c2ccco2)n1
percent effect: 7.283

3 of the entries, repeated:

| compound | percent effect |
|---|---|
| `Cc1nc(CNCc2c(C(C)C)nn(C)c2N2CCOCC2)cs1` | 3.878 |
| `COC(C)C(=O)Nc1cc(C(=O)N2CCSCC2)ccc1C` (centres unmarked) | -56.32 |
| `CN(C)C(C(=O)NC1(CO)CCCC1)c1ccc(F)cc1` (centres unmarked) | -19.67 |